Data: publication PMC7445249
No constants are given. Whether binding was seen depends on the method and setting. In cells and extracts the contact can be indirect. Some entries that bind do so weakly or less than the wild type. For some of these results: Where a sequence is shown, tags or fusion partners need not be part of it.

By UniProt entry, the sequences of proteins in these tests, tags left out.
UniProt Q9NQ35: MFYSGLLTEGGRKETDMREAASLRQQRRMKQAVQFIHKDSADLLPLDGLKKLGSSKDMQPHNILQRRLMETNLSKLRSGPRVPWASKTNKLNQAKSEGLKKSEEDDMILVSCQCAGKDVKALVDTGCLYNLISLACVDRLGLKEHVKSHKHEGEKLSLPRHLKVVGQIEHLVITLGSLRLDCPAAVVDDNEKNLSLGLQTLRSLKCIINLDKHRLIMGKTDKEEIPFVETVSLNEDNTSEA
UniProt Q8WTU0: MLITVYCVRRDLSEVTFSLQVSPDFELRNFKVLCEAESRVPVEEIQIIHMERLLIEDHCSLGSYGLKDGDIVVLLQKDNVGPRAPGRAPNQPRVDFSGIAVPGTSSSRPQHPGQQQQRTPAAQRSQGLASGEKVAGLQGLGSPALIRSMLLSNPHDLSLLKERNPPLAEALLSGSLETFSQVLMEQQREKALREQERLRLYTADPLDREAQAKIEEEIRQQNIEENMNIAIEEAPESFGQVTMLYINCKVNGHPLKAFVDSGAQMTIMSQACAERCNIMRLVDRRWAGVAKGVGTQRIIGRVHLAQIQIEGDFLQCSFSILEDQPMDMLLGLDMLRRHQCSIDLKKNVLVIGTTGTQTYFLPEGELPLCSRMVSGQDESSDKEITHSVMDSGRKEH

T1: RTF2 (replication termination factor 2, homologous to Schizosaccharomyces pombe Rtf2) (human (endogenous in KYSE30 and EC109)) (UniProt Q9BY42)
T1 sequence: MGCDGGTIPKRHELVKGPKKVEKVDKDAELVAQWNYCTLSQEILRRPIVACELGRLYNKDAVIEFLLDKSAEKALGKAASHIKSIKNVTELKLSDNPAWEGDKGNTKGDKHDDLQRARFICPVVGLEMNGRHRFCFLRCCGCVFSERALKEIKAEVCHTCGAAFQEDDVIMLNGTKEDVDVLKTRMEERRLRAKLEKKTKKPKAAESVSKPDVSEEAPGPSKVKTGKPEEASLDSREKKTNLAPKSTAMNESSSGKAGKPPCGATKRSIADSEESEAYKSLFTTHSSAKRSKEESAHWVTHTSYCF


What was measured:
[1] = biological target: NRIP3 (nuclear receptor interacting protein 3), overexpressed in KYSE30 cells (UniProt Q9NQ35); test: co-IP; lysate of 30-NRIP3 cells (KYSE30 overexpressing NRIP3); Pierce Direct Magnetic IP/Co-IP kit, 500 µl lysate with 25 µl beads coupled with 5 µg NRIP3, DDI1 or RTF2 antibody, 4 °C overnight; western blot
[2] = biological target: T1, RTF2 (replication termination factor 2, homologous to Schizosaccharomyces pombe Rtf2) (human (endogenous in KYSE30 and EC109)); test: co-IP; lysate of EC109 cells (endogenous proteins); Pierce Direct Magnetic IP/Co-IP kit, 500 µl lysate with 25 µl beads coupled with 5 µg NRIP3 or RTF2 antibody, 4 °C overnight; western blot
[3] = biological target: DDI1 (DNA-damage inducible 1 homolog 1) (human (endogenous in KYSE30)) (UniProt Q8WTU0); test: co-IP; lysate of 30-NRIP3 cells (KYSE30 overexpressing NRIP3); Pierce Direct Magnetic IP/Co-IP kit, 500 µl lysate with 25 µl beads coupled with 5 µg NRIP3, DDI1 or RTF2 antibody, 4 °C overnight; western blot

Row | Molecule | binding [3] | other results
1 | DDI1 (DNA-damage inducible 1 homolog 1) (from UniProt Q8WTU0 1-396) |  | binding [1]: binds
2 | NRIP3 (nuclear receptor interacting protein 3), endogenous in EC109 cells (from UniProt Q9NQ35 1-241) |  | binding [2]: binds
3 | NRIP3 (nuclear receptor interacting protein 3), overexpressed in KYSE30 cells (from UniProt Q9NQ35 1-241) | binds | 
4 | RTF2 (replication termination factor 2, homologous to Schizosaccharomyces pombe Rtf2) (protein, UniProt Q9BY42 1-306) MGCDGGTIPKRHELVKGPKKVEKVDKDAELVAQWNYCTLSQEILRRPIVACELGRLYNKDAVIEFLLDKSAEKALGKAASHIKSIKNVTELKLSDNPAWEGDKGNTKGDKHDDLQRARFICPVVGLEMNGRHRFCFLRCCGCVFSERALKEIKAEVCHTCGAAFQEDDVIMLNGTKEDVDVLKTRMEERRLRAKLEKKTKKPKAAESVSKPDVSEEAPGPSKVKTGKPEEASLDSREKKTNLAPKSTAMNESSSGKAGKPPCGATKRSIADSEESEAYKSLFTTHSSAKRSKEESAHWVTHTSYCF | binds | 
